Laboratory results reported in US10844051B2, “Substituted oxazoles for the treatment of cancer” (THE ROYAL INSTITUTION FOR THE ADCANCEMENT OF …, priority 2015, dated 2020).
At least one compound was matched to its structure with a doubt left.

Experiments:
[1] = biological target: T1, recombinant protein of human GATA2 (Homo sapiens, UniProt P23769); experiment: SPR analysis on amine-coupled GATA2; format: binding; conditions: 50 μM each
T1 sequence (P23769 1-480): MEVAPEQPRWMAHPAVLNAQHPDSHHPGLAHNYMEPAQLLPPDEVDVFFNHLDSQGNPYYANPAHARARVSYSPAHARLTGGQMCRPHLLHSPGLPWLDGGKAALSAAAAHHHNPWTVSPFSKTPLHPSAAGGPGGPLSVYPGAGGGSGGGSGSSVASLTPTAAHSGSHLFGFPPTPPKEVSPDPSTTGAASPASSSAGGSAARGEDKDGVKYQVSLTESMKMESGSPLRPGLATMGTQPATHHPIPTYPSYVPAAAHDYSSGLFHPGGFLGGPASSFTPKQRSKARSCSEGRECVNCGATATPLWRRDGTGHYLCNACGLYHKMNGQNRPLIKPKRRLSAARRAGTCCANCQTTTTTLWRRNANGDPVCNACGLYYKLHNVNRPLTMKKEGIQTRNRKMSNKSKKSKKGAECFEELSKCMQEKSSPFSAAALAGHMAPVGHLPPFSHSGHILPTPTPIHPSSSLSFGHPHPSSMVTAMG
Source text: In embodiments of the invention, the androgen-bound AR is regressing GATA2 expression and inhibition of AR via castration or use of antiandrogen releases such expression. […] Overexpression of GATA2 confers resistance to antiandrogen bicalutamide (Bic) (FIG. 2.9). Compound 673 is effective against the LNCaP stably transfected with GATA2-expressing plasmid (referred to as LNCaP-GATA2 cells) (FIG. 2.8).

[2] = tested on: LNCaP-pcDNA and LNCaP-GATA2 cells; experiment: Colony formation assay of LNCaP-pcDNA and LNCaP-GATA2 cells; format: cell-based; conditions: 1 μM, FBS medium, 28 days
[3] = tested on: AR signaling in LNCaP-GATA2 cells; experiment: PSA-luc reporter assay and Western blot in LNCaP-GATA2 cells; format: cell-based; conditions: FBS medium

CC(O)(CS(=O)(=O)c1ccc(F)cc1)C(=O)Nc1ccc(C#N)c(C(F)(F)F)c1 (stereo not drawn) [bicalutamide, reference compound]
binding to amine-coupled GATA2 (SPR) [1]: flat baseline
colony formation of LNCaP-pcDNA and LNCaP-GATA2 cells [2]: GATA2 expression confers resistance to BIC
inhibition effect in LNCaP-GATA2 cells (PSA-luc reporter, Western blot) [3]: attenuated inhibition effect
